The other results are listed elsewhere or left out. Most values lie at the level of the controls, where differences are scatter.

The chains behind the UniProt entries cited, without tags or fusion partners. Where a name states a change or a piece, a line headed by the entry shows the natural chain unless it says otherwise.
UniProt P20585: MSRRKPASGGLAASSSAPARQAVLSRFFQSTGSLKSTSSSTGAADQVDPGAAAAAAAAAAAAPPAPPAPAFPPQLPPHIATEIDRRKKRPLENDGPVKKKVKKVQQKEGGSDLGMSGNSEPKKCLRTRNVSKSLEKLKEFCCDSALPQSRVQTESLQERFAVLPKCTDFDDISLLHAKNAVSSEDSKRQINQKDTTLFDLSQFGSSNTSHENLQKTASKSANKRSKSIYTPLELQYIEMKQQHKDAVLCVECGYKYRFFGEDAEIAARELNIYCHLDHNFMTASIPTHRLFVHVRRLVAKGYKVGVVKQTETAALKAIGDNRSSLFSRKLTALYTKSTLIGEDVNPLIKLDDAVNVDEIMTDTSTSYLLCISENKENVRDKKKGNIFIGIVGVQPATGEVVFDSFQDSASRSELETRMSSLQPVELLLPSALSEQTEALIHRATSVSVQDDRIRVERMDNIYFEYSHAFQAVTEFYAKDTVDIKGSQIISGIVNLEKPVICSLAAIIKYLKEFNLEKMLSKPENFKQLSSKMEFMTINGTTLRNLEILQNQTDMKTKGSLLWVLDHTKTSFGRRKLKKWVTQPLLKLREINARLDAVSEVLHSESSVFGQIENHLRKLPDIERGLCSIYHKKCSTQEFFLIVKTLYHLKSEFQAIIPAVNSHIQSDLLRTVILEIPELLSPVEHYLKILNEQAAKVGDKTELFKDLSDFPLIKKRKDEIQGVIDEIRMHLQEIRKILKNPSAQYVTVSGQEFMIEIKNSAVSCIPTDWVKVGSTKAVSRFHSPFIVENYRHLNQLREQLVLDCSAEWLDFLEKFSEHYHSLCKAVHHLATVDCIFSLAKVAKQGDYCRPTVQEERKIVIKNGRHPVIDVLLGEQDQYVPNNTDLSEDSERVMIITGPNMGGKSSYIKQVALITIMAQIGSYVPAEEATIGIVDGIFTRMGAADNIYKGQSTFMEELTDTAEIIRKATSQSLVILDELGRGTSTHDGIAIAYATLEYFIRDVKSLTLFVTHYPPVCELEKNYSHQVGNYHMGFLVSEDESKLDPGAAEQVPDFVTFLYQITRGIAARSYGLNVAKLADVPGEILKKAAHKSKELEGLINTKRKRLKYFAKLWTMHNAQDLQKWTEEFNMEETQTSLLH
UniProt P20839, whole entry, looked up: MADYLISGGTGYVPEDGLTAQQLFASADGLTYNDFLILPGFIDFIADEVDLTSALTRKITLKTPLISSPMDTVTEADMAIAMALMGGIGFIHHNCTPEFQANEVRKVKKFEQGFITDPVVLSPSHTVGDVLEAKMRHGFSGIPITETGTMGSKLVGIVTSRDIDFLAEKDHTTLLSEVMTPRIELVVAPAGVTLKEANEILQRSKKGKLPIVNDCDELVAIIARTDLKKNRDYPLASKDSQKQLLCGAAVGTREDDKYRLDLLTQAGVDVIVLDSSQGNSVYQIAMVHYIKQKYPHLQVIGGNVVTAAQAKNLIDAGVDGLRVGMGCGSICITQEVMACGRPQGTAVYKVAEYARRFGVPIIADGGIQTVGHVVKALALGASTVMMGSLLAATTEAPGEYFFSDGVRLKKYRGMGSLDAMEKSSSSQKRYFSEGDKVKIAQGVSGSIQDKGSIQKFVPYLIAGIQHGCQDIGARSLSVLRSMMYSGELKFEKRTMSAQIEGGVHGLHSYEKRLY
UniProt P22612, whole entry, looked up: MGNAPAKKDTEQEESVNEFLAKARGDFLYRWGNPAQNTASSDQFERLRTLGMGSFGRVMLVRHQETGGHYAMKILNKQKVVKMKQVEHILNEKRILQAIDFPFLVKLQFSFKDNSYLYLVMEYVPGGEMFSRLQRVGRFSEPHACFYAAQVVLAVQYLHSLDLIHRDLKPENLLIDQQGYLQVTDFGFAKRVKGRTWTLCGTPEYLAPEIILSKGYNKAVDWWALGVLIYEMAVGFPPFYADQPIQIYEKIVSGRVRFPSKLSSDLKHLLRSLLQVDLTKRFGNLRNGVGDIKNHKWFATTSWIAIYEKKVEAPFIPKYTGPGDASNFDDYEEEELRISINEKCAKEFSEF
UniProt P24278: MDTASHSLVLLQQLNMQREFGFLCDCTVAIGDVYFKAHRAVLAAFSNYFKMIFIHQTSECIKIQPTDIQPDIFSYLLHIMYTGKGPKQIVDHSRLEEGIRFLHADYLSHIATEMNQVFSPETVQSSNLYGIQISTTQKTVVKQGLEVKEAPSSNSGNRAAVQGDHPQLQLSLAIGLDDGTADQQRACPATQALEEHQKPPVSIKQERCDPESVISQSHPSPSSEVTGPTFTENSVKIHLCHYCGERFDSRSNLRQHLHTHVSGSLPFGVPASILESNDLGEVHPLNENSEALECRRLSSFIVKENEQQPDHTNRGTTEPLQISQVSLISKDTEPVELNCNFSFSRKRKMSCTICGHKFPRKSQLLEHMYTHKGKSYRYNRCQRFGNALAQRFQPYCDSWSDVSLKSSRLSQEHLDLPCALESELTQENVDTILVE
UniProt P28072: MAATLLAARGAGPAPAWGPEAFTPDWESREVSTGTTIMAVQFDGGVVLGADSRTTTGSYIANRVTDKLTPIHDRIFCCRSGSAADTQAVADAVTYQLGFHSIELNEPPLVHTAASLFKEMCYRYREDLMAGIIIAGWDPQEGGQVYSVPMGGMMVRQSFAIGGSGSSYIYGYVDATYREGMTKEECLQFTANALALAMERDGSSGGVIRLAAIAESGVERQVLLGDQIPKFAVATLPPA
UniProt P25490, whole entry: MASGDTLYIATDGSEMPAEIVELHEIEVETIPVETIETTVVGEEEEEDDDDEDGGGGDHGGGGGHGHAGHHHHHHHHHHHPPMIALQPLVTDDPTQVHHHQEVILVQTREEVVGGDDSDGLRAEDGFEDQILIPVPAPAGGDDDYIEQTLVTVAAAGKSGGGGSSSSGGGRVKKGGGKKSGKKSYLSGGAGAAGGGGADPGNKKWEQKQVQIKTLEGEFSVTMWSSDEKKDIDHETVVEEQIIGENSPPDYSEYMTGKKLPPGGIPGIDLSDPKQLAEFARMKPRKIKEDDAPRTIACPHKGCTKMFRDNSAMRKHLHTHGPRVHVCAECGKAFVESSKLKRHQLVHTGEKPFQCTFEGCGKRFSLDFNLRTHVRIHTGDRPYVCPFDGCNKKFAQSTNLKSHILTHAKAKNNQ
UniProt P23582: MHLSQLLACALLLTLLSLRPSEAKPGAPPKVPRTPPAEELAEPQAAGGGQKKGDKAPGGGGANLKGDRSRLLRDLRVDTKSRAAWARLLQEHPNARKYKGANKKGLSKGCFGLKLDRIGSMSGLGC
UniProt P17516: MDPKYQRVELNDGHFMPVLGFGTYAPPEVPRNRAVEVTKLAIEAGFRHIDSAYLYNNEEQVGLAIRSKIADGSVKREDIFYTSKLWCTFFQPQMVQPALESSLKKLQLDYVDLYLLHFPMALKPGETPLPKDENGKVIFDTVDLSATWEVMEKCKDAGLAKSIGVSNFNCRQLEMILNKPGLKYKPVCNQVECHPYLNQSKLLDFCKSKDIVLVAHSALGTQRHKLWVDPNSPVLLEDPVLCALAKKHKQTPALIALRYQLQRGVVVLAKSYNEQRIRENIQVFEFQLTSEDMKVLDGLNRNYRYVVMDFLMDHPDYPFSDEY
UniProt P19484: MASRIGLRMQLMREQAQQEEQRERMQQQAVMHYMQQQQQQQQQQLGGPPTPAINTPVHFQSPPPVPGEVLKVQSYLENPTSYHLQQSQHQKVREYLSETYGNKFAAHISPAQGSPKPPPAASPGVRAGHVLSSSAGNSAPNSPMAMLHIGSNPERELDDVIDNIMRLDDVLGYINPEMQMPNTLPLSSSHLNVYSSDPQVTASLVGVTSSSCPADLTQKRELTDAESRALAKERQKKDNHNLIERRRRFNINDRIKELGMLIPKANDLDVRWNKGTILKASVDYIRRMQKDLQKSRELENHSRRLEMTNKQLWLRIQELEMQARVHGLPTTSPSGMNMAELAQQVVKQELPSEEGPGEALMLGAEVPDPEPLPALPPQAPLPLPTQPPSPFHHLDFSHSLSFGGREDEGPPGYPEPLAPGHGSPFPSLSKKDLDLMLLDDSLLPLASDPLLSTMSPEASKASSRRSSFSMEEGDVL

Compound in this test: Cc1nc(Nc2ncc(C(=O)Nc3c(C)cccc3Cl)s2)cc(N2CCN(CCO)CC2)n1 [dasatinib]
As to the kind of experiment: log2 fold change of tryptic peptide abundance, ligand vs vehicle (limited proteolysis) (log2 ratio); higher = more trypsin-susceptible (destabilized). The conditions noted are these: ligand concentration: 5 uM; sample: K562 cleared lysate.
On to “MSH3 (peptide sequence: SKELEGLINTKR, peptide start residue: 1090) (UniProt P20585)”, for which the log2 fold change came to 0.764.
Consider “IMPDH1 (peptide sequence: YRGMGSLDAMEK, peptide start residue: 411) (UniProt P20839)”, for which the log2 fold change came to 0.153.
Turning to “PRKACG (peptide sequence: KVEAPFIPK, peptide start residue: 310) (UniProt P22612)”, the log2 fold change came to 0.0557.
Turning to “UniProt P24278 (peptide sequence: EAPSSNSGNR, peptide start residue: 149)”, the log2 fold change was -0.333.
With “PSMB6 (peptide sequence: QVLLGDQIPK, peptide start residue: 221) (UniProt P28072)”, the log2 fold change was -0.174.
“YY1 (peptide sequence: TLEGEFSVTMWSSDEKK, peptide start residue: 214) (UniProt P25490)”: the log2 fold change was -0.242.
Regarding “UniProt P23582 (peptide sequence: KGLSKGCFGLK, peptide start residue: 104)”, the log2 fold change was -0.0112.
For “UniProt P17516 (peptide sequence: REDIFYTSK, peptide start residue: 76)” the value was 0.0997; for “TFEB (peptide sequence: FAAHISPAQGSPKPPPAASPGVR, peptide start residue: 104) (UniProt P19484)”, -0.301.
